PubChem BioAssay AID1259254 – NCATS | 2017
Test: 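Finding genes that stop cells copying their DNA twice in one cycle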 (primary screen). System: human HCT116 colorectal cancer cells. Knock-down reagent: single siRNA against human genes. Time to read-out: 3 days. Measurement: 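Nuclei stained with Hoechst and imaged; cell-cycle phase assigned by DNA content; G2 share scaled per plate, non-targeting siRNA 0%, GMNN siRNA 100%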. Direction: G2 robust z-score: higher = more G2 cells, more excess DNA replication. Rule for the call: 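An siRNA counts as active if its G2 robust z-score lies at least 5 MADs above the screen median; here such calls match roughly 38% of GMNN control or more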.
Shown is an unselected part of about 59,000 reagents. Over the whole deposit, about 1,550 (2.6%) are marked active. 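G2 share is only a proxy for re-replication; each gene was hit by three separate siRNAs, and active genes were retested.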 Reagents against one gene are numbered here. Further read-outs or replicates are left out here. No sequences are given here. Not given: the amount of reagent.

G2 robust z-score, by target and reagent
SNX27: #1 2.9 inactive; #2 -1.17 inactive; #3 -0.372 inactive
ACTC1: #1 1.99 inactive; #2 0.0989 inactive; #3 0.801 inactive
ADIPOR2: #1 1.07 inactive; #2 1.4 inactive; #3 0.747 inactive
DEFA1: #1 0.183 inactive; #2 0.309 inactive; #3 0.808 inactive
ARHGEF38: #1 -0.686 inactive; #2 -0.0527 inactive; #3 2.04 inactive
RUNDC3A: #1 1.14 inactive; #2 -0.759 inactive; #3 1.22 inactive
TNS3: #1 -0.374 inactive; #2 2.12 inactive; #3 0.00555 inactive
MCOLN1: #1 2.5 inactive; #2 1.5 inactive; #3 -0.0425 inactive
VDAC2P5: #1 1.64 inactive; #2 -0.313 inactive; #3 -0.747 inactive
NUDT15: #1 0.0728 inactive; #2 -0.0591 inactive; #3 -0.522 inactive
USPL1: #1 0.837 inactive; #2 -1.02 inactive; #3 3.69 inactive
SAC3D1: #1 0.831 inactive; #2 -0.72 inactive; #3 -0.429 inactive
PAPOLA-DT: #1 1 inactive; #2 -0.633 inactive; #3 -0.47 inactive
FZD6: #1 -0.136 inactive; #2 -0.397 inactive; #3 0.295 inactive
SELPLG: #1 0.174 inactive; #2 0.874 inactive; #3 0.916 inactive
LRCH1: #1 -0.847 inactive; #2 1.31 inactive; #3 -0.161 inactive
ECT2L: #1 -0.699 inactive; #2 0.337 inactive; #3 -0.132 inactive
LYG1: #1 0.259 inactive; #2 -0.415 inactive; #3 0.0645 inactive
COL12A1: #1 -0.619 inactive; #2 -0.746 inactive; #3 1.88 inactive
SLC16A12: #1 -0.257 inactive; #2 0.477 inactive; #3 -0.397 inactive
UGDH: #1 -0.207 inactive; #2 -0.0954 inactive; #3 6.32 active
RAB33B: #1 -0.176 inactive; #2 0.466 inactive; #3 -0.0596 inactive
NEK7: #1 9.25 active; #2 3.51 inactive; #3 -0.348 inactive
LINC00477: #1 0.254 inactive; #2 0.805 inactive; #3 -0.532 inactive
CDH16: #1 -1.17 inactive; #2 1.39 inactive; #3 0.754 inactive
RP1: #1 1.13 inactive; #2 0.455 inactive; #3 0.681 inactive
DCUN1D4: #1 1.32 inactive; #2 -0.66 inactive; #3 0.186 inactive
EYA4: #1 0.0203 inactive; #2 1.13 inactive; #3 -0.214 inactive
TRAPPC8: #1 3.15 inactive; #2 -0.6 inactive; #3 0.298 inactive

Hits (from the list above):
G2 robust z-score, by target and reagent
UGDH: #3 6.32 active
NEK7: #1 9.25 active
